The list shows a part of the results.

Protein sequences, listed by entry. Tags and fused reporters are not part of them. Lines headed by an entry give the natural chain unless they say otherwise; changes in a name come on top.
UniProt Q96G21: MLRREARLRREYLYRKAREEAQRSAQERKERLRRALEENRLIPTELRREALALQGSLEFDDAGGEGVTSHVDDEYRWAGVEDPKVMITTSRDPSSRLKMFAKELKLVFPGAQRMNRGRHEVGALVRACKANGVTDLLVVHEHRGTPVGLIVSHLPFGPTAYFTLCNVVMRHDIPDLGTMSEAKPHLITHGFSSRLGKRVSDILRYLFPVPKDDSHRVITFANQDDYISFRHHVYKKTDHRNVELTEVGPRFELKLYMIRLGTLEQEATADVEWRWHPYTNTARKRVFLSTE
UniProt Q9UNL4, whole entry, looked up: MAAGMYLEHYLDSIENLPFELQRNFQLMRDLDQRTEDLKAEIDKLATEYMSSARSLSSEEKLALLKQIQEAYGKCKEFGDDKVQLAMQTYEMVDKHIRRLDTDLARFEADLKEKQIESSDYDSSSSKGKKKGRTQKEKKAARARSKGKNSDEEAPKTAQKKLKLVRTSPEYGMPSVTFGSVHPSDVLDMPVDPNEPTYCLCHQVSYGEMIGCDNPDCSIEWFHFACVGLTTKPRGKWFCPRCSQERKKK
UniProt P35475: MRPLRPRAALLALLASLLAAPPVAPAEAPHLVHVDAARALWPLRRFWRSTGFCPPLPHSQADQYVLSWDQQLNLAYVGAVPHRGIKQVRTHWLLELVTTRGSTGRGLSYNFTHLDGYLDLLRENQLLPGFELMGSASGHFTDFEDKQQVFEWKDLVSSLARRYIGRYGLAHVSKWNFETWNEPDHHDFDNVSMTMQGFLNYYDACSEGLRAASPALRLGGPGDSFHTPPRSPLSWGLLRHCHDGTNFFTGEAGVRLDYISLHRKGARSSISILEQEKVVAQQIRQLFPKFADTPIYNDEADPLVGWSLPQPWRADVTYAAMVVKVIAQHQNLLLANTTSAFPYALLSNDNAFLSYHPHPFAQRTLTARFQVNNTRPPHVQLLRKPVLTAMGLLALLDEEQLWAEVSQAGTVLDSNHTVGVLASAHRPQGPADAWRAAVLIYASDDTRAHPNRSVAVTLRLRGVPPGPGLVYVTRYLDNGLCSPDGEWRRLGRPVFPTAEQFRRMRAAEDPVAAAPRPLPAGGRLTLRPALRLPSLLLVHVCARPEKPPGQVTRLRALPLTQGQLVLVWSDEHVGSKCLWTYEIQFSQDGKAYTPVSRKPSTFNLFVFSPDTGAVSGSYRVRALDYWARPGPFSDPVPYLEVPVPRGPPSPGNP
UniProt P22304: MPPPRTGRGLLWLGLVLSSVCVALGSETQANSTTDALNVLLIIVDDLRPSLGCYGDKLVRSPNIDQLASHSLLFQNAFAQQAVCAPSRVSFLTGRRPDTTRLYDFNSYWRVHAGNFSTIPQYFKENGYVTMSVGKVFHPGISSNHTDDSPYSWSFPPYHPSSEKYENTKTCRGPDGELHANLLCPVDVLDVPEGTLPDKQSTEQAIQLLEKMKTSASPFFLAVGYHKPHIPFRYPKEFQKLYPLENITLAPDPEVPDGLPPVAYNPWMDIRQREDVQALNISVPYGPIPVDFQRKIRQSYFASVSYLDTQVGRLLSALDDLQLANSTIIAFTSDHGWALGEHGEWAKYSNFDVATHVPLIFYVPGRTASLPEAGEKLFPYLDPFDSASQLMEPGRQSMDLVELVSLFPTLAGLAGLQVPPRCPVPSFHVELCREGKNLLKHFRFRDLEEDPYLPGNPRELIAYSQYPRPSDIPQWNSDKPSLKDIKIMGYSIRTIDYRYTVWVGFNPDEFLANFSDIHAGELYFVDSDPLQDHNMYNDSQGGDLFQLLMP
UniProt P50213: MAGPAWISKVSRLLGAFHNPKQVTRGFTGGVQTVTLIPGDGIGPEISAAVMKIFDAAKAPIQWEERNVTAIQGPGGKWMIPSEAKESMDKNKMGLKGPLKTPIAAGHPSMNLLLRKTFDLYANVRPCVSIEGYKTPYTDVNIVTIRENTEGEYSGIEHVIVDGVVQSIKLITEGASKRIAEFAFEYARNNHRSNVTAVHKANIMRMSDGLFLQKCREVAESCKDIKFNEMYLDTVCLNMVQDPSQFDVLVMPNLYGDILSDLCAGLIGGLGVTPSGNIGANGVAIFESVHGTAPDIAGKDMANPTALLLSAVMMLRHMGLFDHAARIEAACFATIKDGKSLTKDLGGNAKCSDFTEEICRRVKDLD
UniProt Q7Z6Z7, whole entry, looked up: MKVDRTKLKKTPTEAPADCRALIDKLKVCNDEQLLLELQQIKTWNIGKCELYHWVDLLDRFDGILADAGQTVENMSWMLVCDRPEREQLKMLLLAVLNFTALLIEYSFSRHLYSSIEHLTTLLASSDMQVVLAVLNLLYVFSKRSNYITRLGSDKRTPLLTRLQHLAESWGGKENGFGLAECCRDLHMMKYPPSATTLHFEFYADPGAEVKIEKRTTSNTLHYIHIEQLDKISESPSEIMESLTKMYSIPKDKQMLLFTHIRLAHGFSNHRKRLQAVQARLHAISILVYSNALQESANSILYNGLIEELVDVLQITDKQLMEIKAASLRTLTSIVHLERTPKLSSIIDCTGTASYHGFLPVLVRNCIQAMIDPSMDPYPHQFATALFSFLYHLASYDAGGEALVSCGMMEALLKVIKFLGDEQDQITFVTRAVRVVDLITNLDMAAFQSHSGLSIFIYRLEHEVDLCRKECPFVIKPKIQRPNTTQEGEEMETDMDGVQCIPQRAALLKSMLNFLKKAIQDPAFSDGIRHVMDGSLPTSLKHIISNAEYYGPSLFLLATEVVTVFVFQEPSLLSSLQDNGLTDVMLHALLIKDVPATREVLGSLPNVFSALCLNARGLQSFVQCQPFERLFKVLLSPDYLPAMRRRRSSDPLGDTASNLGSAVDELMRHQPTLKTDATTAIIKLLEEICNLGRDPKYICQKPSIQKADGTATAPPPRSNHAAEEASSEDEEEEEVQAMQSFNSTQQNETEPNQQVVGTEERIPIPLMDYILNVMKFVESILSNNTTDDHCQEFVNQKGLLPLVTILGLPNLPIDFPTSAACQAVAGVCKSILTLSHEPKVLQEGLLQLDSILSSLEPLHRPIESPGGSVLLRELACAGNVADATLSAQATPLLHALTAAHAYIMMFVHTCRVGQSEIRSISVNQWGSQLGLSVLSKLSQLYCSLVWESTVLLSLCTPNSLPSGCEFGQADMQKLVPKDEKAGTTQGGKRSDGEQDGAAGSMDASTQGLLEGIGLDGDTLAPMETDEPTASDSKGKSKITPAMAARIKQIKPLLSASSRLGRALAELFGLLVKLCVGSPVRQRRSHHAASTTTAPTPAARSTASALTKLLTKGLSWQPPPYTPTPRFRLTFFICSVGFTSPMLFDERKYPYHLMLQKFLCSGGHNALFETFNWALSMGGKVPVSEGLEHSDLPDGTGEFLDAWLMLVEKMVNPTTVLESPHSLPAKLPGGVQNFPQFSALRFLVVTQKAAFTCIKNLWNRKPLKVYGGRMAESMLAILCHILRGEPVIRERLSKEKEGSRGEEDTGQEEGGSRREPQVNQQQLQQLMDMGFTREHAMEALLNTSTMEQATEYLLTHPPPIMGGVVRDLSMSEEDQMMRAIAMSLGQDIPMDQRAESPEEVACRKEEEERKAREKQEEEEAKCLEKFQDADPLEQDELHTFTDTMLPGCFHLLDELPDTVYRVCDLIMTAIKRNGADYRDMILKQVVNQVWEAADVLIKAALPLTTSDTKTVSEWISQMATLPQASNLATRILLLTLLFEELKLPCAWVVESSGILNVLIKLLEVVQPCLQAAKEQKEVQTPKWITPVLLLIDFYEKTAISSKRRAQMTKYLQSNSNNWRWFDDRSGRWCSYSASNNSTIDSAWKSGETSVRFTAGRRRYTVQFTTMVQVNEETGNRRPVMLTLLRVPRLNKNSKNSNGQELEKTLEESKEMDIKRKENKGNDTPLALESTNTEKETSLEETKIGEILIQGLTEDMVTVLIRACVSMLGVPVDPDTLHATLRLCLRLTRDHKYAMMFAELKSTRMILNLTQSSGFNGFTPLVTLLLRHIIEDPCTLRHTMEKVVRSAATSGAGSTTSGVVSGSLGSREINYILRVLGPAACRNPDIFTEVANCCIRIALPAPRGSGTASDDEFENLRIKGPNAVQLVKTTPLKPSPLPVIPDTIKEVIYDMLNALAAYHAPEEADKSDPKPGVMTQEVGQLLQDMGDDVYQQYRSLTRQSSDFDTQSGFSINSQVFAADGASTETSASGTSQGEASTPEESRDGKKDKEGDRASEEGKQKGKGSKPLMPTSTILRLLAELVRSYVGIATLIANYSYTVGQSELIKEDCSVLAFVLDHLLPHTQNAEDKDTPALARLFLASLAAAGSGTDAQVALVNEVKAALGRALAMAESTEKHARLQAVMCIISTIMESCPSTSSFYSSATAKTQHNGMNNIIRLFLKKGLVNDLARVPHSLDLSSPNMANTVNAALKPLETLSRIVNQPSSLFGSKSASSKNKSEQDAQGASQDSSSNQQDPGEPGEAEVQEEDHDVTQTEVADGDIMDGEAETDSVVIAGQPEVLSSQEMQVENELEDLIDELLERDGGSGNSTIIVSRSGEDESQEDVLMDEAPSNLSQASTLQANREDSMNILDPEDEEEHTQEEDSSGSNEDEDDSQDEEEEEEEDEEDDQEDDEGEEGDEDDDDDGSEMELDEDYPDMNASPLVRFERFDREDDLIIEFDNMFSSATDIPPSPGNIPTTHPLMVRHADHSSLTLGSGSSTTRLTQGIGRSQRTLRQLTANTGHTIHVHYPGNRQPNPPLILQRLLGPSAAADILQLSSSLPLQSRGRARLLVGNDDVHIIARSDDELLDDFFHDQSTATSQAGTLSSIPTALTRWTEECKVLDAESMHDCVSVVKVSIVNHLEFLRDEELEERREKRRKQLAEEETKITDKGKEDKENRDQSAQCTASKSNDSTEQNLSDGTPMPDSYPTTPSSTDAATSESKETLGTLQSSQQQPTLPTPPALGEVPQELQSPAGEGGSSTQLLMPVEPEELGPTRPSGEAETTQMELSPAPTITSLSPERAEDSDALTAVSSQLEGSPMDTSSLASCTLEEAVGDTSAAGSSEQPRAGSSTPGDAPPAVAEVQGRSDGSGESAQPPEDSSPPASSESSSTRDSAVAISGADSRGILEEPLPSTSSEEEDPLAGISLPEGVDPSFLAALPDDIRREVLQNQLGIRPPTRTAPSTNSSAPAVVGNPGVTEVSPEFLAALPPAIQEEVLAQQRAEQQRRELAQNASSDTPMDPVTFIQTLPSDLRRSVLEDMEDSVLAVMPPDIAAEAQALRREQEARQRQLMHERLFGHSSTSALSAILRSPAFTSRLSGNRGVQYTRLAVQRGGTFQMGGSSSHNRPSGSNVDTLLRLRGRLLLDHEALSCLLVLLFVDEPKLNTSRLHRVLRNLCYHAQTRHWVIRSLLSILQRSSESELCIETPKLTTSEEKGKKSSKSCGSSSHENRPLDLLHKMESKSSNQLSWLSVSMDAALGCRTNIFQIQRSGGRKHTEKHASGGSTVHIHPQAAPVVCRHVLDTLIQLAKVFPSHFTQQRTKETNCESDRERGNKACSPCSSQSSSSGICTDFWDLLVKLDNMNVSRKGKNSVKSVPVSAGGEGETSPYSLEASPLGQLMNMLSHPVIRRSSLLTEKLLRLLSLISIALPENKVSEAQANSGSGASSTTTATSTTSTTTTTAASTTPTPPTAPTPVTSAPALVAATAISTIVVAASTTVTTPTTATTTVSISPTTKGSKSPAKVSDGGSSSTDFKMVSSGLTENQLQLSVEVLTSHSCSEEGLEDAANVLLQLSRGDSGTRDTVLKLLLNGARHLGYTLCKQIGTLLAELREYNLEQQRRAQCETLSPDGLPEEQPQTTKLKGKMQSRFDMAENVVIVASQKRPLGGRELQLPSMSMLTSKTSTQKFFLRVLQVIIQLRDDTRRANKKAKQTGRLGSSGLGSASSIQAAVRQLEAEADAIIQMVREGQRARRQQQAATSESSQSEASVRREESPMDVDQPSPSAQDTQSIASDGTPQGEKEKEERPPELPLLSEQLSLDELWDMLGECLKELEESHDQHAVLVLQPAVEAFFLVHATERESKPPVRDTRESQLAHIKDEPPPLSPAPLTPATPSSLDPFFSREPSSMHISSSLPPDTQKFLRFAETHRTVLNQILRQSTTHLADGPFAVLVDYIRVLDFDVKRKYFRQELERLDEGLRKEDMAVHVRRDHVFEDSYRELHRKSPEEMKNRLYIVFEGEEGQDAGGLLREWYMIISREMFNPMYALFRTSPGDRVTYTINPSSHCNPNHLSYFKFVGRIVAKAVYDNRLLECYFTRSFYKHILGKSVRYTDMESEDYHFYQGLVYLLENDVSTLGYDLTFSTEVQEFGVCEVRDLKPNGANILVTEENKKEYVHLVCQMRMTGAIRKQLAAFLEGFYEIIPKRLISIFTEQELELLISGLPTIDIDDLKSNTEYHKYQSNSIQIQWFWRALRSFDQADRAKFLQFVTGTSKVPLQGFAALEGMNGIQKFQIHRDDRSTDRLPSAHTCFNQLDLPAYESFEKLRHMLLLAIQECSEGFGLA

Compound in the first assay: O=C1NC(=O)C(c2cnc3ccccn23)=C1c1cn2c3c(cc(F)cc13)CN(C(=O)N1CCCCC1)CC2
Put plainly: log2 fold change, soluble protein after heating vs DMSO (PISA); higher = thermal stabilisation; K562 lysate, 10 uM; active = over 0.2 and 3.5 SD of the protein, either way, in both replicates (recomputed). A digest of the protocol:
(§1)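 Thermal stability, expressed as log-two fold change relative to solvent controls, is given from duplicates. Crude K562 extract in PBS pH 7.4 with 1 mM MgCl2, at 1 mg/mL protein, was treated with 10 μM compound for 30 min and heated in aliquots for 3 min across 48°C-58°C. After pooling, adjustment to 0.5% NP-40 at 4°C and centrifugation at 21,000xg for 90 min, supernatant protein was measured by TMTpro 16plex LC-MS/MS with channel sums equalised.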
On to INAFM2 (UniProt P0DMQ5), for which the log2 fold change was inactive: -0.03.
The same measure, in the same setting: the result for IMP4 (UniProt Q96G21) reads inactive: 0.024; that for IL15RA (UniProt Q13261), inactive: 0.049.
The same measure, in the same setting: under IGLL5 (UniProt B9A064) stands inactive: 0.101.
The same measure, in the same setting: the result for ING4 (UniProt Q9UNL4) reads inactive: -0.011; that for ILF3 (UniProt K7EKJ9), inactive: -0.036.
For the target IFT81 (UniProt Q8WYA0), the log2 fold change is inactive: 0.067.
In the case of ING2 (UniProt Q9H160), the log2 fold change is inactive: 0.
The same measure, in the same setting: the result for INO80 (UniProt Q9ULG1) reads inactive: 0.035.
In the case of IL13RA1 (UniProt P78552), the log2 fold change was inactive: 0.056.
Turning to IDUA (UniProt P35475), the log2 fold change is inactive: 0.057.

Compound in the next assay: c1cn2cc(-c3ccc4cn[nH]c4c3)nc(Nc3ccc(N4CCOCC4)cc3)c2n1 [entospletinib]
Described as above. A digest of the protocol: as §1
Consider HYOU1, A0A494C039, for which the log2 fold change is inactive: 0.088.
In the case of IGSF1 isoform 4 (UniProt Q8N6C5), the log2 fold change is inactive: -0.232.
As to IDS (UniProt P22304), the log2 fold change was inactive: -0.088.
Turning to HVCN1 (UniProt Q96D96), the log2 fold change is inactive: -0.469.
As for IFT22 (UniProt Q9H7X7), the log2 fold change was inactive: -0.179.
Same read-out and setting: under IGLL5 (UniProt B9A064) stands inactive: -0.118; under INPP5A (UniProt Q14642), inactive: -0.068; under ING2 (UniProt Q9H160), inactive: 0.206.
In the case of HYDIN (UniProt Q4G0P3), the log2 fold change was inactive: -0.005.
Still for that read-out and setting: the result for IDH3A isoform 2 (UniProt P50213) reads inactive: 0.012; that for ICAM4 (UniProt Q14773), inactive: 0.009; that for ICAM4 isoform 3 (UniProt Q14773), inactive: -0.419.
On the same count and under the same terms, under HUWE1 isoform 2 (UniProt Q7Z6Z7) stands inactive: -0.077.
As for HSPH1 isoform 2 (UniProt Q92598), the log2 fold change is inactive: 0.047.
With HUWE1, A0A087X1S3, the log2 fold change was inactive: 0.001.
The same measure, in the same setting: the result for IFIH1 (UniProt Q9BYX4) reads inactive: -0.191.
